Not every detail of the peptide structures is certain; ends, links or a residue may be inferred. No end group written: not given here.
Tested on: MDCK cells
Type: cell-based, canine
Conditions: ISC across MDCK monolayers
Description: Cell culture: MDCK cells were a generous gift of Dr. Lawrence Sullivan (Kansas University Medical Center, Kansas City, Kans.). T84 cells were obtained from Dr. Daniel Devor (University of Pittsburgh, Pittsburgh, Pa.). MDCK and T84 cells were maintained with similar culture procedures. The culture medium was a 1:1 mixture of DMEM and Ham's F-12 (Gibco BRL, Grand Island, N.Y.) supplemented with 5% heat inactivated fetal bovine serum (BioWhittaker, Walkersville, Md.), and 1% penicillin and streptomycin (Gibco BRL). Cells were grown in plastic culture flasks in a humidified environment with 5% CO2 at 37° C. and passaged every 5-7 days. […]
Epithelial electrical measurements: Transepithelial ion transport was evaluated in a modified Ussing chamber (Model DCV9, Navicyte, San Diego, Calif.). […] The transepithelial membrane potential (Vte) was clamped to zero and the transepithelial short circuit current (Isc), an indicator of net ion transport, was measured continuously with a voltage clamp apparatus (Model 558C, University of Iowa, Department of Bioengineering, Iowa City, Iowa). […]
Transepithelial ion transport was evaluated in a modified Ussing chamber (Model DCV9, Navicyte, San Diego, Calif.). […]

KKKKAARVGLGITTVLVTTIGLGVRAA [SEQ ID No. 27, KKKKAARVGL GITTVLVTTI GLGVRAA]
fold lower k1/2 than NK4-M2GlyR: 4 fold

From patent US8163870B2, “Channel forming peptides” (Kansas State University Research Foundation, priority 2000, dated 2012)
